Source: publication PMC6131509
These are yes or no findings as the source states them, for the method shown. Binding seen in cells or lysates may run through a third protein. Some entries that bind do so weakly or less than the wild type.

Protein sequences, listed by entry. Tags and fused reporters are not part of them. Lines headed by an entry give the natural chain unless they say otherwise; changes in a name come on top. Chains listed by the source or under a name are the forms on record and can include a tag or linker.
UniProt B2RWS6: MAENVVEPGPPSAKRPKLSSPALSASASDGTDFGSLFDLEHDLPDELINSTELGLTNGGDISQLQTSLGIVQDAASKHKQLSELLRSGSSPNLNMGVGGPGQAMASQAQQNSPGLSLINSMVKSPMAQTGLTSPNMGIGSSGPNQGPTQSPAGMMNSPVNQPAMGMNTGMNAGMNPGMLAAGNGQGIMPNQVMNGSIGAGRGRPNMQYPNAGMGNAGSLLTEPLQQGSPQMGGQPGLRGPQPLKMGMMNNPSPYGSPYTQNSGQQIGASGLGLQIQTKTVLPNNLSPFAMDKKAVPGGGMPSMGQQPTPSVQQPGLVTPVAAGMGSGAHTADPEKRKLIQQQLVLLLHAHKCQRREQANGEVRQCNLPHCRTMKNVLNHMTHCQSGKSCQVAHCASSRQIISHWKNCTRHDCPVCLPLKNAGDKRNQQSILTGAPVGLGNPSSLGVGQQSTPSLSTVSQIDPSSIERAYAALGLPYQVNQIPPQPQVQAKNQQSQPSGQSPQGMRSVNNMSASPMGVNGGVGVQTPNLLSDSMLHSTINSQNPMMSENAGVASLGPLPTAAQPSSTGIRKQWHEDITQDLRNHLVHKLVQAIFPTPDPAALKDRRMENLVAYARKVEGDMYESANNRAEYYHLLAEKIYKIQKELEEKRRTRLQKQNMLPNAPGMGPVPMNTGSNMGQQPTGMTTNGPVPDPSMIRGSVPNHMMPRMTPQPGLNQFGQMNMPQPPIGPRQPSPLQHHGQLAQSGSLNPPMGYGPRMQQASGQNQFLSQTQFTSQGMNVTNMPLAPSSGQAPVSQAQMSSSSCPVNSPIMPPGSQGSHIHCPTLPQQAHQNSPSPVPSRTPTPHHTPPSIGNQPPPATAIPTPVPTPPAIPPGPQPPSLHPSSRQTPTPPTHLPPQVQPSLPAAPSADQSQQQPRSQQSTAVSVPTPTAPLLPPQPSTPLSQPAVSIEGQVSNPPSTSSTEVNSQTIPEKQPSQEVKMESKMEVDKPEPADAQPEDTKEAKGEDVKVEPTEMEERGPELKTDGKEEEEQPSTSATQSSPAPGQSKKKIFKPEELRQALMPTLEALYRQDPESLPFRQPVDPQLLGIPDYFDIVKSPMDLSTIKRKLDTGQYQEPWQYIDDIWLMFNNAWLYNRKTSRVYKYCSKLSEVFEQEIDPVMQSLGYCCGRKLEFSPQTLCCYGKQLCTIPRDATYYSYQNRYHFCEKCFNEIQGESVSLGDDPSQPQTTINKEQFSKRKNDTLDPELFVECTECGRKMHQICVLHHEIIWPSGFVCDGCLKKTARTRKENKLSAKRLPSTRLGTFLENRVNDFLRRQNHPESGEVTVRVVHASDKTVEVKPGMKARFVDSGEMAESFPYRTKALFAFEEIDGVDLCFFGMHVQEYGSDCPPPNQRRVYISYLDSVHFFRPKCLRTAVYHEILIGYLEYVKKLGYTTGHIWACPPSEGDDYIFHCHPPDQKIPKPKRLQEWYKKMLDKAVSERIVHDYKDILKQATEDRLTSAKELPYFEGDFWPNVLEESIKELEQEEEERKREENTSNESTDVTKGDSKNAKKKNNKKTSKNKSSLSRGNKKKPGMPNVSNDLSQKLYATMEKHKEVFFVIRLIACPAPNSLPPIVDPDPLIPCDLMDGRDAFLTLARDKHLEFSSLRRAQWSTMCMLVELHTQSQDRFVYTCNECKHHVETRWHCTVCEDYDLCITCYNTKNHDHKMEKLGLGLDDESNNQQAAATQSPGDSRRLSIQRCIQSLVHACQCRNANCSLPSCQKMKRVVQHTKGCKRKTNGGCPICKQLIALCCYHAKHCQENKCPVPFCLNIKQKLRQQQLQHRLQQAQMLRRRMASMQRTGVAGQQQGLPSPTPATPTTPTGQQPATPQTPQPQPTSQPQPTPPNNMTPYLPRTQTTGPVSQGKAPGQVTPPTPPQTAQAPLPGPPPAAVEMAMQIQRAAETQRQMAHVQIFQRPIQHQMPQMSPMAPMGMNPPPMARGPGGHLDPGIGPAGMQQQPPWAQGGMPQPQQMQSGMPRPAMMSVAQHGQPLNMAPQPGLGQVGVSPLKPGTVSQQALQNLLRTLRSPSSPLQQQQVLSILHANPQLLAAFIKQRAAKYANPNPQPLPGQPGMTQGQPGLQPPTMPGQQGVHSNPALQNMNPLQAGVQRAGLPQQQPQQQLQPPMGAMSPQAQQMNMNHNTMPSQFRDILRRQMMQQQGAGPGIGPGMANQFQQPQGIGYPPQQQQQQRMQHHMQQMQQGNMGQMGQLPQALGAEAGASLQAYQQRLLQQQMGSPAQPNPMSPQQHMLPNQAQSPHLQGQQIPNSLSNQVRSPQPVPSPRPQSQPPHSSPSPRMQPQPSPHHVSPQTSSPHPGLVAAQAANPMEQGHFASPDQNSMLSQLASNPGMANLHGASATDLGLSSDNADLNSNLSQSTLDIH
pS133-CREB (CREB phosphorylated at Ser133) (Q01147-1, form named): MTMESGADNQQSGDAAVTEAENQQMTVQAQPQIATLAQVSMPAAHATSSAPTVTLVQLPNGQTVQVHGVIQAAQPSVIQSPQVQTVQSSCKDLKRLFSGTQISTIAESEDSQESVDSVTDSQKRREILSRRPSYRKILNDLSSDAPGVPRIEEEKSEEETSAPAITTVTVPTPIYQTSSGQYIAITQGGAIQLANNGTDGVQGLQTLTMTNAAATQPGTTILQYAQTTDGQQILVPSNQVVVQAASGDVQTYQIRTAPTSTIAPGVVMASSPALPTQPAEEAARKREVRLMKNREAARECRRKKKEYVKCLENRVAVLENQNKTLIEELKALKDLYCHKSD

Key:
[1] = molecular target: p300 (wild type) (mouse (endogenous in hippocampus)) (UniProt B2RWS6); assay: co-IP; 1 mg hippocampal lysate (3- and 6-month WT, p300G422S-KI and C57B6 mice) with 3 ug anti-p300 antibody and protein A magnetic beads, 4 °C overnight; lysis buffer 25 mM Tris pH 7.4, 10 mM NaCl, 2 mM EDTA, 1 mM EGTA, 0.5% Triton, 10% glycerol; beads rinsed 3 times; blotted for CREB, pS133-CREB or aPKC
[2] = molecular target: p300G422S (phosphorylation-competent knock-in p300) (mouse (endogenous in hippocampus)) (UniProt B2RWS6); assay: as above

| binding [1] | binding [2] | Substance |
| --- | --- | --- |
| binds | binds | CREB (from UniProt Q01147-1 1-341) |
| binds | – | pS133-CREB (CREB phosphorylated at Ser133) (from UniProt Q01147-1 1-341) |
